Reference: the supplement of paper PMC12542422
Counter-ions that a name gives are not always drawn. ± gives the standard deviation of the averaged measurements. The list shows a part of the results. Values are raw readings; no control value is given beside them.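 Ribosome-assembly readouts in HeLa cells were imaged via ENP1 staining, with or without export block, or inducible tagged ribosomal protein reporters. Machine learning classified per-cell signal location versus solvent (DMSO) controls. Hits surpassed the DMSO false-positive mean by five standard deviations and were visually confirmed; three biological replicates.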

What follows are molecules tested on HeLa RPS2-YFP reporter (assay: fraction of reporter-positive cells with nuclear (nucleolar or nucleolar/nucleoplasmic) RPS2-YFP (MainHitrate); higher = more cells with nucleolar/nuclear readout signal (for ENP1 -LMB: less RNAPI inhibition; for +LMB ENP1 and RP reporters: stronger nuclear/nucleolar retention, i.e. ribosome biogenesis defect)). Settings: concentration: 1 µM; treatment time: 6 h.

| SMILES | fraction of reporter-positive cells with nuclear |
| --- | --- |
| O=C(C1CCCCC1)N1CC(=O)N2CCc3ccccc3C2C1 (stereo not given) [Praziquantel (Biltricide)] | 0.0948 ± 0.073 |
| NC[C@H]1O[C@H](O[C@H]2[C@H](O)[C@@H](O[C@H]3O[C@H](CO)[C@@H](O)[C@H](N)[C@H]3O)[C@H](N)C[C@@H]2N)[C@H](N)[C@@H](O)[C@@H]1O [Bekanamycin] | 0.213 ± 0.16 |
| NS(=O)(=O)c1cc2c(cc1Cl)NC(C(Cl)Cl)NS2(=O)=O (stereo not given) [Trichlormethiazide (Achletin)] | 0.081 ± 0.071 |
| NC(CO)(CO)CO [Trometamol] | 0.114 ± 0.082 |
| CCCNC(C)C(=O)Nc1c(C)csc1C(=O)OC (stereo not given) [Articaine HCl] | 0.123 ± 0.11 |
| [O-][n+]1cccc(CO)c1 [Mepiroxol] | 0.172 ± 0.16 |
| O=c1[nH]cnc2c1ncn2[C@H]1CC[C@@H](CO)O1 [Didanosine (Videx)] | 0.112 ± 0.073 |
| OC(Cn1cncn1)(Cn1cncn1)c1ccc(F)cc1F [Fluconazole] | 0.0763 ± 0.058 |
| CCOC(=O)CC(=O)N1CCSC1COc1ccccc1OC (stereo not given) [Moguisteine] | 0.066 ± 0.038 |
| CCCCCCNC(=O)n1cc(F)c(=O)[nH]c1=O [Carmofur] | 0.0643 ± 0.05 |
| Cc1cc(-n2c(=O)[nH]c(=O)n(C)c2=O)ccc1Oc1ccc(SC(F)(F)F)cc1 [toltrazuril] | 0.117 ± 0.11 |
| O=c1ccn([C@@H]2O[C@H](CO)[C@@H](O)[C@H]2O)c(=O)[nH]1 [Uridine] | 0.15 ± 0.069 |
| CCc1cc(C(N)=S)ccn1 [Ethionamide] | 0.101 ± 0.057 |
| CC(C)NC[C@H](O)COc1ccc(CCOCC2CC2)cc1 [Levobetaxolol HCl] | 0.129 ± 0.12 |
| COc1cnc(NS(=O)(=O)c2ccc(N)cc2)nc1 [Sulfameter (Bayrena)] | 0.111 ± 0.071 |
| Cc1ccc2c(Cl)cc(Cl)c(O)c2n1 [Chlorquinaldol] | 0.118 ± 0.092 |
| OC(CNCC(O)C1CCc2cc(F)ccc2O1)C1CCc2cc(F)ccc2O1 (stereo not given) [Nebivolol (Bystolic)] | 0.122 ± 0.11 |
| CC(C)NCC(O)COc1cccc2ccccc12 (stereo not given) [Propranolol HCl] | 0.122 ± 0.085 |
| COc1cc2nc(N3CCN(C(=O)C4COc5ccccc5O4)CC3)nc(N)c2cc1OC (stereo not given) [Doxazosin mesylate] | 0.124 ± 0.06 |
| CCCN(CCC)CCc1cccc2c1CC(=O)N2 [Ropinirole HCl] | 0.134 ± 0.11 |

3 structures from above, arranged by molar mass, largest number first.

| SMILES | fraction of reporter-positive cells with nuclear |
| --- | --- |
| NC[C@H]1O[C@H](O[C@H]2[C@H](O)[C@@H](O[C@H]3O[C@H](CO)[C@@H](O)[C@H](N)[C@H]3O)[C@H](N)C[C@@H]2N)[C@H](N)[C@@H](O)[C@@H]1O [Bekanamycin] | 0.213 ± 0.16 |
| O=c1[nH]cnc2c1ncn2[C@H]1CC[C@@H](CO)O1 [Didanosine (Videx)] | 0.112 ± 0.073 |
| CCc1cc(C(N)=S)ccn1 [Ethionamide] | 0.101 ± 0.057 |

The listing continues.

| SMILES | fraction of reporter-positive cells with nuclear |
| --- | --- |
| CC(=O)NC[C@H]1CN(c2ccc(N3CCOCC3)c(F)c2)C(=O)O1 [Linezolid (Zyvox)] | 0.106 ± 0.052 |
| CN1CCC[C@@H]1CCO[C@](C)(c1ccccc1)c1ccc(Cl)cc1 [Clemastine Fumarate] | 0.109 ± 0.071 |
| COc1ccccc1N1CCN(CCCNc2cc(=O)n(C)c(=O)n2C)CC1 [Urapidil HCl] | 0.122 ± 0.061 |
| CC(=O)Oc1cc2c(s1)CCN(C(C(=O)C1CC1)c1ccccc1F)C2 (stereo not given) [Prasugrel (Effient)] | 0.131 ± 0.085 |
| CN(C)[C@@H]1C(O)=C(C(N)=O)C(=O)[C@@]2(O)C(O)=C3C(=O)c4c(O)cccc4[C@@](C)(O)[C@H]3[C@H](O)[C@@H]12 [Oxytetracycline dihydrate] | 0.134 ± 0.087 |
| OC(CCN1CCCCC1)(c1ccccc1)c1ccccc1 [Pridinol Methanesulfonate] | 0.187 ± 0.19 |
| CCOC(=O)c1ccc(OC(=O)CCCCCNC(=N)N)cc1 [Gabexate mesylate] | 0.118 ± 0.051 |
| N[C@@H]1CONC1=O [D-Cycloserine] | 0.121 ± 0.056 |
| C[C@H](N)[C@H](O)c1cccc(O)c1 [Metaraminol Bitartrate] | 0.161 ± 0.18 |
| CC[C@@H]1C(=O)OC[C@@H]1Cc1cncn1C [Pilocarpine HCl] | 0.148 ± 0.12 |
| CCOCC(O)COc1ccc(NC(=O)CC[S+](C)C)cc1 (stereo not given) [Suplatast tosylate] | 0.108 ± 0.059 |
| CC(C)(C)c1cc(C(C)(C)C)c(NC(=O)c2c[nH]c3ccccc3c2=O)cc1O [Ivacaftor (VX-770)] | 0.106 ± 0.07 |
| CN(Cc1ccc(C(C)(C)C)cc1)Cc1cccc2ccccc12 [Butenafine HCl] | 0.123 ± 0.098 |
| Cn1cnc([N+](=O)[O-])c1Sc1ncnc2[nH]cnc12 [Azathioprine (Azasan, Imuran)] | 0.103 ± 0.067 |
| Cc1cc2nc3c(=O)[nH]c(=O)nc-3n(C[C@H](O)[C@H](O)[C@H](O)CO)c2cc1C [Riboflavin (Vitamin B2)] | 0.127 ± 0.11 |
| C/C(O)=C(\C#N)C(=O)Nc1ccc(C(F)(F)F)cc1 [Teriflunomide] | 0.0821 ± 0.056 |
| CC(=O)O[C@@]12CO[C@@H]1C[C@H](O)[C@@]1(C)C(=O)[C@H](O)C3=C(C)[C@@H](OC(=O)[C@H](O)[C@@H](NC(=O)OC(C)(C)C)c4ccccc4)C[C@@](O)([C@@H](OC(=O)c4ccccc4)[C@H]21)C3(C)C [Docetaxel (Taxotere)] | 0.153 ± 0.12 |
| CN(C)CCOC(c1ccccc1)c1ccccc1 [Diphenhydramine HCl (Benadryl)] | 0.123 ± 0.062 |
| CCC(NC(C)C)C(O)c1ccc(O)c(O)c1 (stereo not given) [Isoetharine Mesylate] | 0.186 ± 0.19 |
| CN(C)c1ccc(C(=C2C=CC(=[N+](C)C)C=C2)c2ccc(N(C)C)cc2)cc1 [Crystal violet] | 0.32 ± 0.3 |
